This is an account of results in publication PMC4153465.

Protein sequences, listed by entry. Tags and fused reporters are not part of them.
UniProt Q8K1B8: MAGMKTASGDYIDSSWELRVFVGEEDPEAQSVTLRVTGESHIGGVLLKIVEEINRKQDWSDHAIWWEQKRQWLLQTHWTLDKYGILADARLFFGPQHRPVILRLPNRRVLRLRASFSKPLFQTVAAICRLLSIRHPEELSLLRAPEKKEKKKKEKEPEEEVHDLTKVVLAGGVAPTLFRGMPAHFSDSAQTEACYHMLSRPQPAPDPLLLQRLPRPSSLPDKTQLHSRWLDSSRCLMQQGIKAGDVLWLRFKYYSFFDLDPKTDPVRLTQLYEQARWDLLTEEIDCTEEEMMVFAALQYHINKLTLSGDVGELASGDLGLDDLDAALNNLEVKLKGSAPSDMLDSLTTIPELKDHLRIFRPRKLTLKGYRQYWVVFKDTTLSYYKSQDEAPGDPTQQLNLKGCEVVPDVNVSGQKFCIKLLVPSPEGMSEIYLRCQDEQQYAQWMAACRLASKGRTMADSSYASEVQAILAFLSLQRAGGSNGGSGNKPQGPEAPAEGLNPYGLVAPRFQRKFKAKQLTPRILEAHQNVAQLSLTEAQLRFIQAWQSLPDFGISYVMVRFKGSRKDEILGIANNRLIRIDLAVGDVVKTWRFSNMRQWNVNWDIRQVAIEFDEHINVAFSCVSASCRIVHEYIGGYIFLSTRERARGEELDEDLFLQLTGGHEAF

The assay addresses recombinant murine kindlin-3 (mouse) (UniProt Q8K1B8). Description: SEC; Superdex S200 (16/60), Tris-HCl pH 7.5, 150 mM NaCl, 1 mM DTT, 20 °C; size judged from the elution volume; both purified. (In gel filtration, larger molecules generally elute earlier.)

No constants are given. Whether binding was seen depends on the method and setting.

Consider “recombinant murine kindlin-3 (from UniProt Q8K1B8 1-665)”, for which the binding result is recorded as “no binding”.
